Results are given in words; binding and its absence hold for the method and conditions named. Binding seen in cells or lysates may run through a third protein. Here binding means that the protein was enriched with, or labelled near, the bait; the list need not be complete.
B1: protein disulfide-isomerase family A member 4 (PDIA4) (protein, UniProt P13667 21-645)
chain: VAGAEGPDEDSSNRENAIEDEEEEEEEDDDEEEDDLEVKEENGVLVLNDANFDNFVADKDTVLLEFYAPWCGHCKQFAPEYEKIANILKDKDPPIPVAKIDATSASVLASRFDVSGYPTIKILKKGQAVDYEGSRTQEEIVAKVREVSQPDWTPPPEVTLVLTKENFDEVVNDADIILVEFYAPWCGHCKKLAPEYEKAAKELSKRSPPIPLAKVDATAETDLAKRFDVSGYPTLKIFRKGRPYDYNGPREKYGIVDYMIEQSGPPSKEILTLKQVQEFLKDGDDVIIIGVFKGESDPAYQQYQDAANNLREDYKFHHTFSTEIAKFLKVSQGQLVVMQPEKFQSKYEPRSHMMDVQGSTQDSAIKDFVLKYALPLVGHRKVSNDAKRYTRRPLVVVYYSVDFSFDYRAATQFWRSKVLEVAKDFPEYTFAIADEEDYAGEVKDLGLSESGEDVNAAILDESGKKFAMEPEEFDSDTLREFVTAFKKGKLKPVIKSQPVPKNNKGPVKVVVGKTFDSIVMDPKKDVLIEFYAPWCGHCKQLEPVYNSLAKKYKGQKGLVIAKMDATANDVPSDRYKVEGFPTIYFAPSGDKKNPVKFEGGDRDLEHLSKFIEEHATKLSRTKEEL
B2: PDIA6 (protein, UniProt Q15084 20-440)
chain: LYSSSDDVIELTPSNFNREVIQSDSLWLVEFYAPWCGHCQRLTPEWKKAATALKDVVKVGAVDADKHHSLGGQYGVQGFPTIKIFGSNKNRPEDYQGGRTGEAIVDAALSALRQLVKDRLGGRSGGYSSGKQGRSDSSSKKDVIELTDDSFDKNVLDSEDVWMVEFYAPWCGHCKNLEPEWAAAASEVKEQTKGKVKLAAVDATVNQVLASRYGIRGFPTIKIFQKGESPVDYDGGRTRSDIVSRALDLFSDNAPPPELLEIINEDIAKRTCEEHQLCVVAVLPHILDTGAAGRNSYLEVLLKLADKYKKKMWGWLWTEAGAQSELETALGIGGFGYPAMAAINARKMKFALLKGSFSEQGINEFLRELSFGRGSTAPVGGGAFPTIVEREPWDGRDGELPVEDDIDLSDVELDDLGKDEL

Amino acid sequences for entries named in this document (tags omitted). Residues count along the entry.
UniProt P07355: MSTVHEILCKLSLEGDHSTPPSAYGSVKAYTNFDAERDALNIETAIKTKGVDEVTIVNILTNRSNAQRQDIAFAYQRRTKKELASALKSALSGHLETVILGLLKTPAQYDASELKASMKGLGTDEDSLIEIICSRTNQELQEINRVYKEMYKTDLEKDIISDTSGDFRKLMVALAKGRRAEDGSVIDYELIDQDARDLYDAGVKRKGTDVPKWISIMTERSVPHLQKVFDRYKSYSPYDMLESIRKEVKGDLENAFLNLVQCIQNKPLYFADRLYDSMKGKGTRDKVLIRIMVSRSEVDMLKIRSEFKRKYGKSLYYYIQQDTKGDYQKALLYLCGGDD
UniProt P08238: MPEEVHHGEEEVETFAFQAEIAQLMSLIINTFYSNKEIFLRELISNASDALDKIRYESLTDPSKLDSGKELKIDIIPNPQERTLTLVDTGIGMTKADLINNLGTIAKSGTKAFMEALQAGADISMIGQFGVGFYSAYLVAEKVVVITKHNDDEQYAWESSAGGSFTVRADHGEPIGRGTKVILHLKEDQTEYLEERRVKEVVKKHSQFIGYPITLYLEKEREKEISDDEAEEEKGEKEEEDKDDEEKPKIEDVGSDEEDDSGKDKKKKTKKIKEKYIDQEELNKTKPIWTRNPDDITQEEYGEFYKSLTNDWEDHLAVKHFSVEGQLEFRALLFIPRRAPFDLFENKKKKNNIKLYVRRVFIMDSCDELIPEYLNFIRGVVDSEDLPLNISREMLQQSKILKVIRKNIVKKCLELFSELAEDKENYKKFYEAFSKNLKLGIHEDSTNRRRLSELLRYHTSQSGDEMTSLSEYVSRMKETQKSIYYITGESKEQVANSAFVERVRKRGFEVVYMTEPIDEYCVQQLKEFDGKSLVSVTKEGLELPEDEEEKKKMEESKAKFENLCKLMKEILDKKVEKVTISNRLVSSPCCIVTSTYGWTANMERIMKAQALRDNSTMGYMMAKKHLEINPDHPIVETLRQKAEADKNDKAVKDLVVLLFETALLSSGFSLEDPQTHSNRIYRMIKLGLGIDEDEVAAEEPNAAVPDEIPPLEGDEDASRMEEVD
UniProt P0DMV8: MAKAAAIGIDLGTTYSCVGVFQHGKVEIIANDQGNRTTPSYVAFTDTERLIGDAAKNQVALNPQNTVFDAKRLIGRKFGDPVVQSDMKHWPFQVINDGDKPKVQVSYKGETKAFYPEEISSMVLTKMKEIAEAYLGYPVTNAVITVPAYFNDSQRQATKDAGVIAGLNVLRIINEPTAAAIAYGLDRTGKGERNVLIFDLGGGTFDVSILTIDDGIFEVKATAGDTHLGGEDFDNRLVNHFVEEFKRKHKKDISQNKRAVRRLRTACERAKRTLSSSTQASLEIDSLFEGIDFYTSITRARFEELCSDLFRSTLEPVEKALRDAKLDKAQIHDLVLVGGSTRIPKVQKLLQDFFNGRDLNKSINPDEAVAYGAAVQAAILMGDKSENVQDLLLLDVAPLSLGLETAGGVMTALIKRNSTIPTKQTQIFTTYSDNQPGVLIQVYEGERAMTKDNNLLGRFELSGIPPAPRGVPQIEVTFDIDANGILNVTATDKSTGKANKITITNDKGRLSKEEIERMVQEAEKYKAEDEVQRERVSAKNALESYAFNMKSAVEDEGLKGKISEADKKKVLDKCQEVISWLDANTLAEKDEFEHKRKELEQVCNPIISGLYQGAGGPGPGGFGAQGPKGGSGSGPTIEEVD
UniProt P54652: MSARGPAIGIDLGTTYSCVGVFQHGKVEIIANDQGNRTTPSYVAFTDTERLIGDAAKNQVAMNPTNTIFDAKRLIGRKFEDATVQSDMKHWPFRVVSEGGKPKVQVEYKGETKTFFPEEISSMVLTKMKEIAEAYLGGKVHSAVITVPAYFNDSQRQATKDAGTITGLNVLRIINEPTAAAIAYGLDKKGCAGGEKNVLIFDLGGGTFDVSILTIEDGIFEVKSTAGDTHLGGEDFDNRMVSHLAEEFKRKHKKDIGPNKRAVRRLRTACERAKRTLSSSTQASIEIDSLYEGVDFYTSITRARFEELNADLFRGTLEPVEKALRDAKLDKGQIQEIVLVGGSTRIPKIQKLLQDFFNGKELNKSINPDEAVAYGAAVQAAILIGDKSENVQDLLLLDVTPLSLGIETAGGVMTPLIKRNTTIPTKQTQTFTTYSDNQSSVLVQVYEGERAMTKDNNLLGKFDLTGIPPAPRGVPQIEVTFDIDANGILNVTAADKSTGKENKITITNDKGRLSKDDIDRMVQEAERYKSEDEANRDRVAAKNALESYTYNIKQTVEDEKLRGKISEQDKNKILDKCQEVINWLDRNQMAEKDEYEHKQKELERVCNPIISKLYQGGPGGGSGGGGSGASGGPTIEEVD
UniProt P11142: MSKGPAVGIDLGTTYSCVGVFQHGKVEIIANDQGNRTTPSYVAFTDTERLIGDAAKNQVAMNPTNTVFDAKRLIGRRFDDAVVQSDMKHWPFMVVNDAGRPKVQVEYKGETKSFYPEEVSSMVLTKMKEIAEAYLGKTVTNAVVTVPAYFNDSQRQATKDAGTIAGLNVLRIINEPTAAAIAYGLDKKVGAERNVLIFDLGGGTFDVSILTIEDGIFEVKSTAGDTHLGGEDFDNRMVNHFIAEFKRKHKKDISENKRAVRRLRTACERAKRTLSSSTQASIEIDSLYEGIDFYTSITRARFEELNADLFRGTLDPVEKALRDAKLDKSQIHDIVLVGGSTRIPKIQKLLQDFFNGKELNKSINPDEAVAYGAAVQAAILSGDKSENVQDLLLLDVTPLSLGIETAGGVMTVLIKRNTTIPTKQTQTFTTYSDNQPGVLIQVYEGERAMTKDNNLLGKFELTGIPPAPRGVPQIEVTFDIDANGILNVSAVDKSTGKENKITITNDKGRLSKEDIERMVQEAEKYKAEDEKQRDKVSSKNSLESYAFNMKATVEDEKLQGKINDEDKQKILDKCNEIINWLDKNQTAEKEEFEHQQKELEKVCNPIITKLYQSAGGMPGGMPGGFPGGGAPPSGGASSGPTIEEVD
UniProt P11021, residues 19-654: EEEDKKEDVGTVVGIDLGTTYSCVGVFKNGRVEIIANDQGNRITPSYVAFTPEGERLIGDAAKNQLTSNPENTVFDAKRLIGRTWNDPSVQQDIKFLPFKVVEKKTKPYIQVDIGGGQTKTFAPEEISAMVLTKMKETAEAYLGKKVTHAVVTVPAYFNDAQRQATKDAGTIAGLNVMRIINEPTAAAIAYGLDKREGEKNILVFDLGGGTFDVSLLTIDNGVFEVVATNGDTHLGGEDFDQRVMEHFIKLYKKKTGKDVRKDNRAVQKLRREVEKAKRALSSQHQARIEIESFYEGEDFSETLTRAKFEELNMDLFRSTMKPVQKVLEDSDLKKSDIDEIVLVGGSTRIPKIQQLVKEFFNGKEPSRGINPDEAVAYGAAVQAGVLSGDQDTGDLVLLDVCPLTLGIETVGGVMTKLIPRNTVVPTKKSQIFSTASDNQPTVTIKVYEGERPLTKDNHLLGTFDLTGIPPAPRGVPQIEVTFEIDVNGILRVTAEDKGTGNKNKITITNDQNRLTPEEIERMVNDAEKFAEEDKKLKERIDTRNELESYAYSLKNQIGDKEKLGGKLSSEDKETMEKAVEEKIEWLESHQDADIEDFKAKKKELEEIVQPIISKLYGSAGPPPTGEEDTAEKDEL

Biological target: JICD1-HA-FLAG (JAG1 intracellular domain) (UniProt P78504)
Test: affinity purification with mass spectrometry; IP against HA from LN18 cells expressing JICD1-HA-FLAG; bound proteins identified by mass spectrometry

Molecule	binding
Annexin A2 (ANXA2), endogenous (from UniProt P07355 1-339)	binds
HSP90AA1 (from UniProt P07900 1-732)	binds
HSP90AB1 (from UniProt P08238 1-724)	binds
HSPA1A (from UniProt P0DMV8 1-641)	binds
HSPA2 (from UniProt P54652 1-639)	binds
HSPA8 (HSC70) (from UniProt P11142 1-646)	binds
heat shock protein family A member 5 (HSPA5) (from UniProt P11021 19-654)	binds
B1	binds
B2	binds

Source: publication PMC10573421
